The values below come from paper PMC11078701.

These are yes or no findings as the source states them, for the method shown.

This experiment has as its target Escherichia coli CpxA sensor domain (residues 31 to 163) (Escherichia coli) (UniProt P0AE82). Description: crystal structure; hanging drop vapor diffusion at room temperature (~21 °C); protein 21.1 mg/ml in 50 mM Hepes pH 7.0, 350 mM NaCl; reservoir 100 mM Tris-HCl pH 7.5, 20% v/v 2-methyl-2,4-pentanediol; two copies in the asymmetric unit; both purified.

B1: Escherichia coli CpxA sensor domain (residues 31 to 163) (domain or fragment, UniProt P0AE82 31-163)
chain: DSRQMTELLDSEQRQGLMIEQHVEAELANDPPNDLMWWRRLFRAIDKWAPPGQRLLLVTTEGRVIGAERSEMQIIRNFIGQADNADHPQKKKYGRVELVGPFSVRDGEDNYQLYLIRPASSSQSDFINLLFDR
On to B1, for which the binding entry was “no binding”.
